Source: doi:10.1101/2021.07.06.451280
No constants are given. Whether binding was seen depends on the method and setting. Binding seen in cells or lysates may run through a third protein. Some entries that bind do so weakly or less than the wild type.

By UniProt entry, the sequences of proteins in these tests, tags left out. Where a name states a change or a piece, a line headed by the entry shows the natural chain unless it says otherwise. Residues count along the entry.
UniProt Q13586, 23-685: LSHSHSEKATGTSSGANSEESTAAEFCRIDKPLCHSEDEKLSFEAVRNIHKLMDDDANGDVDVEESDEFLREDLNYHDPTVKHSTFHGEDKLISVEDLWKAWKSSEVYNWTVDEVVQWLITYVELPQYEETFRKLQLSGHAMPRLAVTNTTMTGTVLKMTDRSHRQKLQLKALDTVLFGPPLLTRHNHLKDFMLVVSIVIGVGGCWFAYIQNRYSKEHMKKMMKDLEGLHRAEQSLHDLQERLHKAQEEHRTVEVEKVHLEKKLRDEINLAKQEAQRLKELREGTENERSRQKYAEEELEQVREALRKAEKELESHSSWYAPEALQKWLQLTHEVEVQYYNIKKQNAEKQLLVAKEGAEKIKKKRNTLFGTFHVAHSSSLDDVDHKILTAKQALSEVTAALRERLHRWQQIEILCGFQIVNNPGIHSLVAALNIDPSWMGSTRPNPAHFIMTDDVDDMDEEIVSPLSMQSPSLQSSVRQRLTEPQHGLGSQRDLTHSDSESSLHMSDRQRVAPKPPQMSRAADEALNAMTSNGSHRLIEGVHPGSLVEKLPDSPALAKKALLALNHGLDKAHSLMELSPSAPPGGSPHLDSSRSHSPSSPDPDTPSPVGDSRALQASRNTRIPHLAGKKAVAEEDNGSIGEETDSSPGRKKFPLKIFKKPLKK
UniProt Q13586, whole entry, looked up, stated change not applied: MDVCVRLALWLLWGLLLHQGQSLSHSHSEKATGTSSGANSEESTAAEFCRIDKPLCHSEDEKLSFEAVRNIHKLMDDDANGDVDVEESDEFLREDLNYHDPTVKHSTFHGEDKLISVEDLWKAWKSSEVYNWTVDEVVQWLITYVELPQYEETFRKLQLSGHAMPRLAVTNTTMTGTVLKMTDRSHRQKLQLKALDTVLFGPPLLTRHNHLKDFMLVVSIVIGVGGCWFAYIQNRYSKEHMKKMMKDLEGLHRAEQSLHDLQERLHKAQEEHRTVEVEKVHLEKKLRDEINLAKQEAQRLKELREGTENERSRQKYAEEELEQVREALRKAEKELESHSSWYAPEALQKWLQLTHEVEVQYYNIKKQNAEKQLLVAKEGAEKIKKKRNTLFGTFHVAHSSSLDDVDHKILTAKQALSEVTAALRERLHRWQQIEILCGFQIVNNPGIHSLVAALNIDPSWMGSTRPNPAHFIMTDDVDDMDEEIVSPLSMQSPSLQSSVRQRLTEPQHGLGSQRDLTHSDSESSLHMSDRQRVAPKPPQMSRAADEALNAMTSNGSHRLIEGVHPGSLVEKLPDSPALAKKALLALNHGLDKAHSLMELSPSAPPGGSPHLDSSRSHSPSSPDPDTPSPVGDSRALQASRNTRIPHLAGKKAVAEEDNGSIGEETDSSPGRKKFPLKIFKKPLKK
UniProt Q15691, whole entry: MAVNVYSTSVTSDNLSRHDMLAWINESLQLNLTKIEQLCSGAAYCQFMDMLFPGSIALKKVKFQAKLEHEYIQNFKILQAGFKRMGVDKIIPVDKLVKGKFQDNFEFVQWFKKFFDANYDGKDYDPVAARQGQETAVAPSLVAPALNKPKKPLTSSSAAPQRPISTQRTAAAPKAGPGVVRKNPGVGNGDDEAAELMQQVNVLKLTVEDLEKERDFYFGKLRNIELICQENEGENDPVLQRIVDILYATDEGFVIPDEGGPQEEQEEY

How the values were obtained:
[1] = biological target: mCherry-tagged human STIM1-WT (human) (UniProt Q13586); test: co-IP
[2] = biological target: mCherry-tagged human STIM1-10A mutant (human) (UniProt Q13586); test: co-IP

EB1-GFP (from UniProt Q15691 1-268)
binding [1]: binds
binding [2]: binds
